In US8445492B2, “Method for inhibiting growth of cancer cells and cell telomere and diseases of cell proliferation by using heteroannelated anthraquinone derivative compounds” (National Defense Medical Center, priority 2008, dated 2013):

Tests used:
Assay type in all cases: cell-based
[1] = test system: OVCAR-5; assay: NCI DTP in-vitro dose response, Ovarian Cancer
[2] = test system: OVCAR-4; assay: NCI DTP in-vitro dose response, Ovarian Cancer
[3] = test system: MDA-MB-231/ATCC; assay: NCI DTP in-vitro dose response, Breast Cancer
[4] = test system: BT-549; assay: NCI DTP in-vitro dose response, Breast Cancer
[5] = test system: U251; assay: NCI DTP in-vitro dose response, CNS Cancer
[6] = test system: SNB-75; assay: NCI DTP in-vitro dose response, CNS Cancer
[7] = test system: SK-MEL-28; assay: NCI DTP in-vitro dose response, Melanoma
[8] = test system: UACC-62; assay: NCI DTP in-vitro dose response, Melanoma
[9] = test system: UACC-257; assay: NCI DTP in-vitro dose response, Melanoma
[10] = test system: MALME-3M; assay: NCI DTP in-vitro dose response, Melanoma
[11] = test system: RXF 393; assay: NCI DTP in-vitro dose response, Renal Cancer
[12] = test system: A498; assay: NCI DTP in-vitro dose response, Renal Cancer
[13] = test system: HCC-2998; assay: NCI DTP in-vitro dose response, Colon Cancer
[14] = test system: KM12; assay: NCI DTP in-vitro dose response, Colon Cancer
[15] = test system: HCT-15; assay: NCI DTP in-vitro dose response, Colon Cancer
[16] = test system: HT29; assay: NCI DTP in-vitro dose response, Colon Cancer

`CCc1nc2ccc3c(c2[nH]1)C(=O)c1ccccc1C3=O` [TABLE 4-6] was tested, and the “Mean Optical Densities” value ([1]; Log10 Concentration −4.0) was 0.637, the “Mean Optical Densities” value ([1]; Log10 Concentration −5.0) was 0.852 and the “Mean Optical Densities” value ([1]; Log10 Concentration −6.0) was 0.900. The “Mean Optical Densities” value ([1]; Log10 Concentration −7.0) was 0.884, the “Mean Optical Densities” value ([1]; Log10 Concentration −8.0) was 0.865 and the “Mean Optical Densities” value ([2]; Log10 Concentration −4.0) was 0.745. For the same compound, the “Mean Optical Densities” value ([2]; Log10 Concentration −5.0) was 0.999, the “Mean Optical Densities” value ([2]; Log10 Concentration −6.0) was 1.535 and the “Mean Optical Densities” value ([2]; Log10 Concentration −7.0) was 1.694. The “Mean Optical Densities” value ([2]; Log10 Concentration −8.0) was 1.719.

With `CCc1nc2ccc3c(c2[nH]1)C(=O)c1ccccc1C3=O` [TABLE 4-9] the “Mean Optical Densities” value ([3]; Log10 Concentration −4.0) was 0.700, the “Mean Optical Densities” value ([3]; Log10 Concentration −5.0) was 0.820 and the “Mean Optical Densities” value ([3]; Log10 Concentration −6.0) was 1.063. For the same compound, the “Mean Optical Densities” value ([3]; Log10 Concentration −7.0) was 1.097, the “Mean Optical Densities” value ([3]; Log10 Concentration −8.0) was 1.121 and the “Mean Optical Densities” value ([4]; Log10 Concentration −4.0) was 1.166. For the same compound, the “Mean Optical Densities” value ([4]; Log10 Concentration −5.0) was 1.606, the “Mean Optical Densities” value ([4]; Log10 Concentration −6.0) was 1.951 and the “Mean Optical Densities” value ([4]; Log10 Concentration −7.0) was 2.006. For the same compound, the “Mean Optical Densities” value ([4]; Log10 Concentration −8.0) was 2.009.

In the case of `O=C1c2ccccc2C(=O)c2c1ccc1nccnc21` [TABLE 5-4], the “Mean Optical Densities” value ([5]; Log10 Concentration −4.0) was 0.184, the “Mean Optical Densities” value ([5]; Log10 Concentration −5.0) was 0.604 and the “Mean Optical Densities” value ([5]; Log10 Concentration −6.0) was 1.172. The “Mean Optical Densities” value ([5]; Log10 Concentration −7.0) was 1.205, the “Mean Optical Densities” value ([5]; Log10 Concentration −8.0) was 1.242 and the “Mean Optical Densities” value ([6]; Log10 Concentration −4.0) was 0.740. For the same compound, the “Mean Optical Densities” value ([6]; Log10 Concentration −5.0) was 1.079, the “Mean Optical Densities” value ([6]; Log10 Concentration −6.0) was 1.264 and the “Mean Optical Densities” value ([6]; Log10 Concentration −7.0) was 1.350. The “Mean Optical Densities” value ([6]; Log10 Concentration −8.0) was 1.324.

For `CCc1nc2ccc3c(c2[nH]1)C(=O)c1ccccc1C3=O` [TABLE 4-5], the “Mean Optical Densities” value ([7]; Log10 Concentration −4.0) was 0.211, the “Mean Optical Densities” value ([7]; Log10 Concentration −5.0) was 0.537 and the “Mean Optical Densities” value ([7]; Log10 Concentration −6.0) was 0.730. For the same compound, the “Mean Optical Densities” value ([7]; Log10 Concentration −7.0) was 0.762, the “Mean Optical Densities” value ([7]; Log10 Concentration −8.0) was 0.794 and the “Mean Optical Densities” value ([8]; Log10 Concentration −4.0) was 1.015. The “Mean Optical Densities” value ([8]; Log10 Concentration −5.0) was 1.231, the “Mean Optical Densities” value ([8]; Log10 Concentration −6.0) was 1.874 and the “Mean Optical Densities” value ([8]; Log10 Concentration −7.0) was 1.978. The “Mean Optical Densities” value ([8]; Log10 Concentration −8.0) was 1.844, the “Mean Optical Densities” value ([9]; Log10 Concentration −4.0) was 0.506 and the “Mean Optical Densities” value ([9]; Log10 Concentration −5.0) was 0.694. The “Mean Optical Densities” value ([9]; Log10 Concentration −6.0) was 0.808, the “Mean Optical Densities” value ([9]; Log10 Concentration −7.0) was 0.761 and the “Mean Optical Densities” value ([9]; Log10 Concentration −8.0) was 0.763. For the same compound, the “Mean Optical Densities” value ([10]; Log10 Concentration −4.0) was 0.683, the “Mean Optical Densities” value ([10]; Log10 Concentration −5.0) was 0.835 and the “Mean Optical Densities” value ([10]; Log10 Concentration −6.0) was 1.153. The “Mean Optical Densities” value ([10]; Log10 Concentration −7.0) was 1.161 and the “Mean Optical Densities” value ([10]; Log10 Concentration −8.0) was 1.174.

With `O=C1c2ccccc2C(=O)c2c1ccc1nccnc21` [TABLE 5-7] the “Mean Optical Densities” value ([11]; RXF 393, Log10 Concentration −4.0) was 0.919, the “Mean Optical Densities” value ([11]; RXF 393, Log10 Concentration −5.0) was 1.355 and the “Mean Optical Densities” value ([11]; RXF 393, Log10 Concentration −6.0) was 1.829. For the same compound, the “Mean Optical Densities” value ([11]; RXF 393, Log10 Concentration −7.0) was 1.973, the “Mean Optical Densities” value ([11]; RXF 393, Log10 Concentration −8.0) was 2.024 and the “Mean Optical Densities” value ([12]; A498, Log10 Concentration −4.0) was 0.456. The “Mean Optical Densities” value ([12]; A498, Log10 Concentration −5.0) was 0.839, the “Mean Optical Densities” value ([12]; A498, Log10 Concentration −6.0) was 1.058 and the “Mean Optical Densities” value ([12]; A498, Log10 Concentration −7.0) was 1.034. The “Mean Optical Densities” value ([12]; A498, Log10 Concentration −8.0) was 1.079.

`CCc1nc2ccc3c(c2[nH]1)C(=O)c1ccccc1C3=O` [TABLE 4-3] was tested, and the “Mean Optical Densities” value ([13]; Log10 Concentration −4.0) was 0.988, the “Mean Optical Densities” value ([13]; Log10 Concentration −5.0) was 1.527 and the “Mean Optical Densities” value ([13]; Log10 Concentration −6.0) was 1.983. For the same compound, the “Mean Optical Densities” value ([13]; Log10 Concentration −7.0) was 2.044, the “Mean Optical Densities” value ([13]; Log10 Concentration −8.0) was 1.963 and the “Mean Optical Densities” value ([14]; Log10 Concentration −4.0) was 0.373. The “Mean Optical Densities” value ([14]; Log10 Concentration −5.0) was 0.625, the “Mean Optical Densities” value ([14]; Log10 Concentration −6.0) was 1.003 and the “Mean Optical Densities” value ([14]; Log10 Concentration −7.0) was 1.040. The “Mean Optical Densities” value ([14]; Log10 Concentration −8.0) was 1.072, the “Mean Optical Densities” value ([15]; Log10 Concentration −4.0) was 0.348 and the “Mean Optical Densities” value ([15]; Log10 Concentration −5.0) was 0.588. The “Mean Optical Densities” value ([15]; Log10 Concentration −6.0) was 1.121, the “Mean Optical Densities” value ([15]; Log10 Concentration −7.0) was 1.422 and the “Mean Optical Densities” value ([15]; Log10 Concentration −8.0) was 1.391. For the same compound, the “Mean Optical Densities” value ([16]; Log10 Concentration −4.0) was 0.241, the “Mean Optical Densities” value ([16]; Log10 Concentration −5.0) was 0.557 and the “Mean Optical Densities” value ([16]; Log10 Concentration −6.0) was 0.893. For the same compound, the “Mean Optical Densities” value ([16]; Log10 Concentration −7.0) was 0.998 and the “Mean Optical Densities” value ([16]; Log10 Concentration −8.0) was 0.951.

In the case of `O=C1c2ccccc2C(=O)c2c1ccc1nccnc21` [TABLE 5-6], the “Mean Optical Densities” value ([1]; Log10 Concentration −4.0) was 0.506, the “Mean Optical Densities” value ([1]; Log10 Concentration −5.0) was 0.912 and the “Mean Optical Densities” value ([1]; Log10 Concentration −6.0) was 1.056. For the same compound, the “Mean Optical Densities” value ([1]; Log10 Concentration −7.0) was 0.999, the “Mean Optical Densities” value ([1]; Log10 Concentration −8.0) was 1.054 and the “Mean Optical Densities” value ([2]; Log10 Concentration −4.0) was 0.472. For the same compound, the “Mean Optical Densities” value ([2]; Log10 Concentration −5.0) was 0.883, the “Mean Optical Densities” value ([2]; Log10 Concentration −6.0) was 1.075 and the “Mean Optical Densities” value ([2]; Log10 Concentration −7.0) was 1.220. The “Mean Optical Densities” value ([2]; Log10 Concentration −8.0) was 1.311.
